Experimental findings from patent US20250042948 (published 2025) are described below.

A short description of this data set: general procedure: solution-phase peptide synthesis; PyOxim/2,4,6 collidine; PyOxim/NMM; TOTU/NMM; Oxyma-EDC*HCl/NMM.
The mark [1] stands for this setting: late stage modification step, HPLC.

For “Fmoc-Ala-Cys[Ψ(Dmp,H)pro]-Thr(tBu)-Gly-Cys[Ψ(Dmp,H)pro]-Tyr(tBu)-OtBu”, the step yield (coupling step) amounted to 93%. The “crude HPLC purity” value (coupling step, HPLC) is listed as 91.9%.

Consider “Fmoc-Asn(Trt)-Pro-Ala-Cys[Ψ(Dmp,H)pro]-Thr(tBu)-Gly-Cys[Ψ(Dmp,H)pro]-Tyr(tBu)-OtBu”, for which the step yield (coupling step) worked out at 98%. Also, the “crude HPLC purity” value (coupling step, HPLC) was 87.3%.

On to “Fmoc-Cys(SO3Na)-Cys(SO3Na)-Glu(tBu)-Tyr(tBu)-Cys(SO3Na)-Cys(Trt)-Asn(Trt)-Pro-Ala-Cys[Ψ(Dmp,H)pro]-Thr(tBu)-Gly-Cys[Ψ(Dmp,H)pro]-Tyr(tBu)-OtBu”, for which, where the note is “coupling step, HPLC”, the “crude HPLC purity” value worked out at 66.7%.

In turn, “Fmoc-Cys(SO3Na)-Cys(SO3Na)-Glu(tBu)-Tyr(tBu)-OH” yielded a step yield (coupling step) of 65%. In addition, the “crude HPLC purity” value (coupling step, HPLC) was found to be 94.3%.

“Fmoc-Cys(Trt)-Asn(Trt)-Pro-Ala-Cys[Ψ(Dmp,H)pro]-Thr(tBu)-Gly-Cys[Ψ(Dmp,H)pro]-Tyr(tBu)-OtBu” displayed a step yield (coupling step) of 95%. Moreover, the “crude HPLC purity” value (coupling step, HPLC) was 84.3%.

“Fmoc-Thr(tBu)-Gly-Cys[Ψ(Dmp,H)pro]-Tyr(tBu)-OtBu” yielded a step yield (coupling step) of 87%. Further, where the note is “coupling step, HPLC”, the “crude HPLC purity” value came to 93.9%.

For the setting “late stage modification step”, “H-Ala-Cys[Ψ(Dmp,H)pro]-Thr(tBu)-Gly-Cys[Ψ(Dmp,H)pro]-Tyr(tBu)-OtBu” showed a step yield of 91%. In addition, the “crude HPLC purity” value under setting [1] turned out to be 90.3%.

Consider “H-Asn(Trt)-Pro-Ala-Cys[Ψ(Dmp,H)pro]-Thr(tBu)-Gly-Cys[Ψ(Dmp,H)pro]-Tyr(tBu)-OtBu”, for which, for the setting “late stage modification step”, the step yield is given as 89%. Besides, the “crude HPLC purity” value under setting [1] turned out to be 89.0%.

Regarding “H-Cys(SO3H)-Cys(SO3H)-Glu-Tyr-Cys(SO3H)-Cys-Asn-Pro-Ala-Cys-Thr-Gly-Cys-Tyr-OH TFA salt”, for the setting “late stage modification step, HPLC, TFA salt”, the “crude HPLC purity” value stood at 57.9%. For the setting “late stage modification step, TFA salt”, the step yield was 92%.

The substance “H-Cys(SO3Na)-Cys(SO3Na)-Glu(tBu)-Tyr(tBu)-Cys(SO3Na)-Cys(Trt)-Asn(Trt)-Pro-Ala-Cys[Ψ(Dmp,H)pro]-Thr(tBu)-Gly-Cys[Ψ(Dmp,H)pro]-Tyr(tBu)-OtBu” had a step yield (late stage modification step) of 89%. Also, the “crude HPLC purity” value under setting [1] is on record as 61.7%.

As to “H-Cys(SO3Na)-Cys(Trt)-Asn(Trt)-Pro-Ala-Cys[Ψ(Dmp,H)pro]-Thr(tBu)-Gly-Cys[Ψ(Dmp,H)pro]-Tyr(tBu)-OtBu”, the step yield (coupling step) is recorded as 83%. In addition, the “crude HPLC purity” value (coupling step, HPLC) is on record as 82.9%.

Linaclotide: the “crude HPLC purity” value (oxidative folding step, HPLC) is recorded as 53.8%. Under “oxidative folding step, cyclization yield”, the oxidative folding yield turned out to be 72%. Also, the “final HPLC purity” value came to 99.97% (purification step, HPLC); 99.94% (purification step, Ion-Pairing Chromatography, run 1); 99.91% (purification step, Ion-Pairing Chromatography, run 2). Further, the step yield is on record as 98% (purification step, Isolation Yield, run 1); 91% (purification step, Isolation Yield, run 2); 55% (purification step, Yield (3 steps)).
